For part of these data: Weaker means in comparison with the reference protein, sequence or condition of that experiment. For part of these data: Protein sequences can lack the tags named with them. For part of these data: Construct, isoform or probe ends are uncertain for at least one entry. For part of these data: Where cells or extracts were used, other partners may take part. For part of these data: At least one verdict rests on a figure or table, not on a statement of the authors.

Data set [1] addresses OFA/iLRP (immature laminin receptor protein) on cells (UniProt P08865). The experiment in a line: flow cytometry and confocal microscopy of cells. Conditions: PBS (pH not stated), 200 uL, 30 min, room temperature, 2x10^5 coated beads with 20-40 pmol FAM-ssDNA (cells: 40-60 pmol), washed once or twice with PBS, protein on the cell surface, single-stranded DNA. For orientation: Flow cytometry measures light scatter and fluorescence of single cells or particles in a stream.

The test system of a further data set is trypsin. The data set is described as follows: flow cytometry of coated beads. The following applies: binding very weak; PBS (pH not stated), 200 uL, 30 min, room temperature; 2x10^5 coated beads with 20-40 pmol FAM-ssDNA (cells: 40-60 pmol); washed once or twice with PBS; commercial protein; single-stranded DNA.
Data set [2] addresses bovine serum albumin (BSA) (bovine) (UniProt P02769). The data set is described as follows: flow cytometry of coated beads. The following applies: binding very weak; PBS (pH not stated), 200 uL, 30 min, room temperature; 2x10^5 coated beads with 20-40 pmol FAM-ssDNA (cells: 40-60 pmol); washed once or twice with PBS; commercial protein; single-stranded DNA.
In the next data set the target is T1, ovalbumin (OVA) (UniProt P01012).
T1 sequence (looked up, limits assumed): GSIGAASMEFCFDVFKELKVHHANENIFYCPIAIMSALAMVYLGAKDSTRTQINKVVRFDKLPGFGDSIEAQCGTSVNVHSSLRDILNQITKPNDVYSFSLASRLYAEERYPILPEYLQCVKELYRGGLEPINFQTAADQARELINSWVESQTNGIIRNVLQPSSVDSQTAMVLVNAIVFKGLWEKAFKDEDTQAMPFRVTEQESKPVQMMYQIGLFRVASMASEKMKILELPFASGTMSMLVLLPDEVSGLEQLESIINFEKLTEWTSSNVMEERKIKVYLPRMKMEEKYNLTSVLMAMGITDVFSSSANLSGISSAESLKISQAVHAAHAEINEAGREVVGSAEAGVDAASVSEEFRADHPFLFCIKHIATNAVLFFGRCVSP
The experiment in a line: flow cytometry of coated beads. The following applies: binding very weak; PBS (pH not stated), 200 uL, 30 min, room temperature; 2x10^5 coated beads with 20-40 pmol FAM-ssDNA (cells: 40-60 pmol); washed once or twice with PBS; commercial protein; single-stranded DNA.

Regarding “TGCGTGTGTAGTGTGTCTGTTGTTTGTATTGTTGTCTATCCTCTTAGGGATTTGGGCGG [AB3]”, the binding result in data set [1] (HL-60 cells, binding nearly abolished after trypsin or proteinase K, OFA/iLRP-negative PBMC bound weakly) is listed as “binds”; in data set [1] (Jurkat cells), “binds”; in data set [1] (Ramos cells), “binds”; in the data set with trypsin it was “binds more weakly”; in data set [2], “binds more weakly”; with ovalbumin (OVA) it was “binds more weakly”.

The values above are taken from PMC6517398.
